Molecular target: T1, Sigma intracellular receptor 2 (Rattus norvegicus, UniProt Q5U3Y7)
T1 sequence (Q5U3Y7 whole entry): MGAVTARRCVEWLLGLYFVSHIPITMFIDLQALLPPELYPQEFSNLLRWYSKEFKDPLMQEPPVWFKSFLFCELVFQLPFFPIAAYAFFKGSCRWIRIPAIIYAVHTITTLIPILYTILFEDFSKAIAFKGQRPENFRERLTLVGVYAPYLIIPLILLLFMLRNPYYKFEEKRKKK
Test: biochemical

OC(CCCN1CCC(O)(c2ccc(Cl)cc2)CC1)c1ccc(F)cc1 (racemic) [HYDROXYHALOPERIDOL] gave a Ki of 2.4 nM.

Source: ChEMBL document CHEMBL5131436, “Dual Sigma-1 receptor antagonists and hydrogen sulfide-releasing compounds for pain treatment: Design, synthesis, and pharmacological evaluation” (Eur J Med Chem, 2022)
